Measurements as given in PubChem BioAssay AID1508600 (Functional Genomics Laboratory (NCATS/FGL), 2020).
About 3,700 (7%) of roughly 53,000 sequences were called active.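 Rule for the calls: active = gene knockdowns whose robust z-score for IL-1 alpha signal is at least 2 or at most -2, so actives lie on both sides; inactive = the rest.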 The list shows a part of the results.

Test: Components of the Cytosolic LPS Sensing Pathway: Gene Identification via Genome-wide siRNA Screen;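 note: robust z of the log signal after scaling to non-targeting control siRNA wells of the plate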
Conditions: RAW264.7 macrophages, IL-1a HTRF, actives lie on both sides, screened at 100 nM (by protocol), cells primed 5 h with Pam3CSK4 first
Method in brief: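 Three distinct siRNAs per gene were tested singly at 100 nM in RAW264.7 macrophages. Following Pam3CSK4 priming and 24 hour LipidA transfection, IL-1a secretion was read by HTRF.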

| Sequence | z-score |
| --- | --- |
| GCAAGAACCUGGUGCGAAATT against Lrrc4b | inactive: -0.53 |
| GCGAAAAGACCAAUAAUGGTT against Ebf1 | inactive: -0.384 |
| GGAACAUCCUUUGAAAACATT against Ptprk | inactive: 0.267 |
| GGAAGAACUGGAAUGAUAUTT against Clec4e | inactive: -0.116 |
| GGACGUAGUACCCAUGAAUTT against Adora2a | inactive: -0.275 |
| GGACACUAGUCGGCUGCUUTT against Naa38 | inactive: 0.838 |
| GGGUGCCUACUUGAUCCUUTT against Hgh1 | inactive: 1.63 |
| GCUUAAAGUACGAUCAGCUTT against Wdr3 | inactive: 0.12 |
| GGAUUGUGAGGUUGUAAUGTT against Hnrnpu | inactive: -0.297 |
| GGAAGCUAUAUAUCAAGAATT against Tcea1 | inactive: 0.69 |
| CGAGUGACAAAUGAAAUCGTT against Ercc4 | inactive: -0.926 |
| CCUCCACUUCGUGAGCGAATT against Xxylt1 | inactive: -1.25 |
| CCAGACCAGGGAGAAAUCATT against Rdh18-ps | inactive: -1.78 |
| GGGCAAAAGCUAAUGACUCTT against 4933409K07Rik | inactive: 0.2 |
| GGCGUGGAUGACCUAGACUTT against Actr3 | inactive: 0.165 |
| GGAUAUGUUUCUAGUAUCATT against Cd226 | inactive: -0.0887 |
| GCAGUACAUAGGACAAUACTT against Ccdc97 | inactive: 0.0835 |
| GGAUCUGAGAAAUGAAAUCTT against Slc3a1 | inactive: -0.701 |
| GGAUCUCAUUCACAGAUUATT against Rasgrp3 | inactive: -0.562 |
| GGAGAAACUGGCUUUCUCUTT against Zp3 | inactive: 0.918 |
| CCUGCUCUAGAGAAGAAGUTT against Naxe | inactive: 0.879 |
| CCUACAACGAACGGGAGAATT against Dpm1 | inactive: 0.408 |

An excerpt of these results, with each value named.
GGAAGAACUGGAAUGAUAUTT against Clec4e
  z-score: inactive: -0.116
GGACACUAGUCGGCUGCUUTT against Naa38
  z-score: inactive: 0.838

Remaining list, next part:

| Sequence | z-score |
| --- | --- |
| CUCCAUAAAAGGAAGUCUATT against Olfr1202 | inactive: -1.31 |
| GGAGCUAGCUAGAACAAGUTT against Slmap | inactive: 1.58 |
| GGCAAUUGUUUUUAGAGAGTT against Cenpn | inactive: 0.857 |
| GGAGCUCAUGAAGAUGAAGTT against Rffl | inactive: 0.906 |
| GGAAGUGAGUUUCAAAGCCTT against H1f6 | inactive: -0.55 |
| GGGCACAUUAUGCAGAACUTT against Relt | inactive: 0.0315 |
| CCGAGUGGUUAGCUACCAGTT against Ccl24 | active: 2.4 |
| GGGCUUUCUGCUGAAGAGATT against Leng9 | inactive: -1.94 |
| GGUAUCAUUUACUUUGAACTT against Gtf2f2 | inactive: -0.0825 |
| CCAUCAUUUAUGAAGACCCTT against Dcaf7 | inactive: -1.44 |
| GGAGUUCUUUUUUUCUGUGTT against Pkd1 | inactive: 0.218 |
| GCCCAUAGGUGCAGAUUCCTT against Fhl4 | inactive: 0.0834 |
| GGACAAGAACUACAUUGAGTT against Eefsec | inactive: 1.44 |
| CCAAGUCCCUUUGUGGUGUTT against Twnk | inactive: -0.749 |
| GAAUGGAAGACGAAAUUUGTT against Ctla2a | inactive: 0.42 |
| GGUUCUUUUGGUCUUCGUGTT against Cox16 | inactive: 0.203 |
| GGACCAGAAGGAGAAGAGUTT against Prg2 | inactive: -1.77 |
| GGGAUGAGUAUGCUUAUGGTT against Sec16b | inactive: -0.116 |
| GCUGAAUACAACGUGAGAUTT against Tdh | active: -4.05 |
| GGGUUGUUGAGACUUCCACTT against Hmbs | active: 2.79 |
| CCUACCUUCAUUCGCUUCGTT against Cpz | active: 2.61 |
| GGGAACCCAUUUUAGAAUUTT against Repin1 | inactive: 0.729 |

Given with tabs: entries from further up.
Sequence	z-score
GGUAUCAUUUACUUUGAACTT against Gtf2f2	inactive: -0.0825
CCAUCAUUUAUGAAGACCCTT against Dcaf7	inactive: -1.44
GGAGUUCUUUUUUUCUGUGTT against Pkd1	inactive: 0.218
GCCCAUAGGUGCAGAUUCCTT against Fhl4	inactive: 0.0834
GGACAAGAACUACAUUGAGTT against Eefsec	inactive: 1.44

Continuation.

| Sequence | z-score |
| --- | --- |
| CGAUGAAGCCAAUCACUUATT against Cct5 | inactive: -1.46 |
| CCAGUACGAACUCUUCCGUTT against Zmynd8 | inactive: 0.105 |
| GGCCUUACCAAAUGGAAGUTT against Ifih1 | active: 2.89 |
| GGUUCUUCUGGCUAGGCACTT against Sgk1 | inactive: -0.134 |
| UUGUGAGUGCAUGUGAAAUTT against Epn1 | inactive: -1.35 |
| GGUGAUCAAACUGAUGGACTT against Gramd4 | inactive: 1.83 |
| GGCUUCUCUGCUCUAGGCUTT against Psenen | inactive: -0.91 |
| GGCGGAAAAGUGUGCAAUATT against Cd244a | inactive: 0.0851 |
| UAGCAGUCUACAGGAAUGGTT against Olfr1411 | inactive: -0.138 |
| CCCUCUUUAAACAGAUUGGTT against Fmo4 | inactive: 0.0175 |
| GGAGACAACCCAGAUGAACTT against Cfap126 | inactive: 1.09 |
| GGAUAACUCACAAGAGUCUTT against Zdhhc16 | inactive: -0.296 |
| GCCCACUAGUCAAAAGCUUTT against Kera | inactive: -1.39 |
| GGGUUCGUUUCACAGAUCCTT against Chrd | inactive: 0.126 |
| CGUGGCUAAACAAAGAGCUTT against Sass6 | inactive: -0.841 |
| GGCAAUUUAUAAUGUCUCUTT against Heph | inactive: -0.143 |
| GGAGGCUGAGUAGGUAUGATT against Olfr137 | inactive: -0.635 |
| GGACAGUGACUACAAUCCATT against Zfp335 | inactive: -0.53 |
| GCCAAUGGUGUUAACAGCATT against Slc24a4 | inactive: -1.94 |
| GGUUGUGUGCAGGAAUGGGTT against Nxn | inactive: -0.221 |
| GGCCUUCAUCUUCAAGUACTT against Ackr3 | inactive: 1.57 |
| GGAAGAAGCUCUAUGCUGATT against Fbxo9 | inactive: -0.589 |

| Sequence | z-score |
| --- | --- |
| CCUAUCCUAGCACACCAGATT against Fosl1 | inactive: -0.258 |
| GGGUAGGGCAGUCUACUUATT against F2r | inactive: -0.407 |
| CGAGCAAUGGCAGAUGAGCTT against Mydgf | inactive: -0.188 |
| GCGACAAUAUGAGUCACCUTT against Fsd1 | active: -2.07 |
| GAAAAGAGGACAGCUUGACTT against Serf1 | inactive: 0.525 |
| GCCCAGUCAAGACUAUUCGTT against Csnk2b | inactive: 1.58 |
| GCAAAUACGAAAAUGAGUGTT against Bfsp1 | inactive: -0.121 |
| GGGAAGUUUCAGGAAGAAGTT against Pbx4 | inactive: -0.0399 |
| CCAAUAAAAAAUGUCUGCATT against Tent5b | inactive: -1.16 |
| GGGAGAAGAUGUCCAUCAATT against Spata19 | inactive: 1.72 |
| GUGGUCUUUAUCGGCAUGATT against Slc35c1 | inactive: 0.287 |
| CGUGAAGAUUGACGUGUUUTT against Pcyox1 | inactive: 1.06 |
| GCUUGGAUUGAGCUUUACATT against Pid1 | active: 3.53 |
| GCGUGGUGUUGACUAUGAGTT against Retsat | inactive: -0.348 |
| GGUGUAGAAAUAAAGUGAGTT against Mbl2 | inactive: -0.615 |
| GGAUUCUCAUGAUUGUAAATT against Tasor2 | inactive: -0.438 |
| GCACUACAGACACUUUUAGTT against Gm5533 | active: -2.12 |
| GGGAUGCCAUCGUGUUUCUTT against Ccl17 | inactive: -0.345 |
| GGCUUUUUGGCUCAAAAAUTT against Spg21 | inactive: -0.903 |
| GCUCAUGUUGCAUGUUAAGTT against Idh3g | inactive: -0.0467 |
| GGGACCACAAAUUUGAAAATT against Tmprss11e | inactive: 0.656 |
| GCAGAUCCGGUAUUUACAUTT against Ngrn | inactive: -0.814 |

| Sequence | z-score |
| --- | --- |
| GCUACUAAAUUCUGUUUUGTT against Nol4l | inactive: 0.325 |
| CCAUCUCAAACACCAAUCGTT against Timd4 | inactive: -1.42 |
| CCCAGGUAGUAUACAAGGUTT against Pcdh1 | active: 2.42 |
| GGAAAGUGGUUUUGUCCACTT against Ing5 | inactive: 0.361 |
| GCAAAGAGGCCUAAUUGAATT against B2m | inactive: 1.16 |
| CCACAGGGAUAGAUACUCCTT against Olfr566 | inactive: -0.339 |
| CCUCUCUUUAACAGGUCACTT against 1700034H15Rik | inactive: 1.35 |
| CGAGUAUCCCGUCAAGUUGTT against 6820408C15Rik | inactive: -0.699 |
| GGAAAGCCACUGUGUAAAATT against Armc9 | inactive: 0.594 |
| GCACAGGUUCAAGUGGAACTT against Prnd | inactive: -1.41 |
| GGUACUGAGCUUGAUUGUATT against Mfsd7a | inactive: 1.26 |
| GCCAUGAGGAGAUUCAAGGTT against Klra5 | inactive: 0.749 |
| GGAACAAAGACGUAAAAAATT against Olfr1101 | inactive: -0.825 |
| GGCGAUGUGACCAUUACAATT against Cct4 | inactive: -1.5 |
| CCGGAGUGACCAUAUUCGUTT against Fgr | inactive: -0.446 |
| GCAUCUAUAAUUCUAUACCTT against BC023105 | inactive: 0.39 |
| GGUAUUUAAGUGAUACAUCTT against Ddost | inactive: -0.321 |
| GGUUACAAUCCAUGAGAAATT against Anapc1 | inactive: -0.059 |
| CCAAAUCUGUUGAUGAUUCTT against Setmar | inactive: -0.184 |
